Data reported in patent publication US20260285846A1, “REV-ERB AGONISTS FOR TH17-MEDIATED INFLAMMATORY DISORDERS” (UNIVERSITY OF FLORID RESEARCH FOUNDATION, iNCORPORATED, priority 2021, published 2026).
Structures were worked out from names or drawings and are uncertain.

By UniProt entry, the sequences of proteins in these tests, tags left out. Chains listed by the source or under a name are the forms on record and can include a tag or linker. Residues count along the entry.
UniProt P20393, 281-614 with tags or gaps DEL324-422 limits assumed: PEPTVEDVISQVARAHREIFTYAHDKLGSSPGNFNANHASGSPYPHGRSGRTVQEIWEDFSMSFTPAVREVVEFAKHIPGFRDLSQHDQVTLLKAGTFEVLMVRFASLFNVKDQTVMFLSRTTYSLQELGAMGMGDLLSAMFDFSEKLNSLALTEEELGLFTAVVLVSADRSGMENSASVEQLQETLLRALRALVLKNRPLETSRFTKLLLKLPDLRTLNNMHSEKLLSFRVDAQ
UniProt Q9Y618, 2335-2356 partner limits assumed: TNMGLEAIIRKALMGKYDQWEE

Molecular target: REV-ERBα LBD (Homo sapiens, UniProt P20393, DEL324-422)
Details: read-out: REVERBα (Agonism of REV-ERBα, EC50); FRET assay; 6xHistag-REV-ERBα LBD with FITC-labeled SMRT corepressor peptide

Cc1ncnc(C(F)F)c1-c1cc2c(cc1F)c([C@H](NS(=O)(=O)C1CC1)C(F)F)cn2CC(C)(C)C
EC50: < 100 nM
